Measurements reported in patent publication US20240172752A1, “7-OXA-3,4-DIAZABICYCLO[4.1.0]HEPT-4-EN-2-ONE COMPOUND AND HERBICIDE” (Nippon Soda Co., Ltd., priority 2021, published 2024).
Some entries share one result that the patent states for a list of compounds.

Legend:
Digitaria ciliaris = experiment: Soil treatment herbicidal test, weed killing rate, Digitaria ciliaris; assay type: in vivo; conditions: 250 g per hectare, after 4 weeks
Setaria faberi = experiment: Soil treatment herbicidal test, weed killing rate, Setaria faberi; assay type: in vivo; conditions: 250 g per hectare, after 4 weeks

Row | Structure (SMILES) | herbicidal activity (weed killing rate) with respect to Digitaria ciliaris (Digitaria ciliaris) [%] | herbicidal activity (weed killing rate) with respect to Setaria faberi (Setaria faberi) [%]
1 | COC12OC1(c1ccc(C(F)(F)F)nc1S(C)(=O)=O)C=NN(C)C2=O (stereo not drawn) [Compound A-1] | ≥ 80 | ≥ 80
2 | COC12OC1(c1ncc(Cl)cc1S(C)(=O)=O)C=NN(C)C2=O (stereo not drawn) [Compound A-2] | ≥ 80 | 
3 | COC12OC1(c1ccc(C(F)(F)F)nc1S(=O)(=O)N1CCOCC1)C=NN(C)C2=O (stereo not drawn) [Compound A-4] | ≥ 80 | ≥ 80
4 | COCCOCc1nc(C(F)(F)F)ccc1C12C=NN(C)C(=O)C1(OC)O2 (stereo not drawn) [Compound A-5] | ≥ 80 | 
5 | COC12OC1(c1ncc(C(F)(F)F)cc1S(C)(=O)=O)C=NN(C)C2=O (stereo not drawn) [Compound A-6] | ≥ 80 | 
6 | COC12OC1(c1cc3cccnc3nc1C(F)(F)F)C=NN(C)C2=O (stereo not drawn) [Compound A-7] | ≥ 80 | 
7 | COC12OC1(c1cc(C(F)(F)F)nn1CS(C)(=O)=O)C=NN(C)C2=O (stereo not drawn) [Compound A-25] |  | ≥ 80
